PubChem BioAssay AID1259308 – NCATS | 2017

Screen: 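Candidate targets for better recombinant protein yield in mammalian cells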 (primary screen)
Cells: human HEK293 embryonic kidney cells stably expressing firefly luciferase (HEK-CMV-Luc2-Hygro)
Reagents: single siRNA against human genes, 0.8 pmol siRNA per well
Time to read-out: 72 h
Detection: 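Reporter luminescence and viable-cell signal on separate replicate plates, given as percent of non-targeting control and median/MAD z-scores, plus per-cell luciferase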
Scale: total luciferase, z-score and total luciferase, % of control: higher = more reporter protein produced; luciferase per cell, z-score: higher = more reporter output per viable cell
Hit rule: 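Active when the median/MAD z-score for overall luciferase is greater than 3; a gene was taken forward for validation with new siRNAs if at least two of its three siRNAs passed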
Meaning of the calls: active = raised luciferase; inactive = no rise
Here is one part, drawn at random, of about 59,000 deposited reagents. Of all reagents, about 1,510 (2.6%) were called active. 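Calls use total luciferase alone and ignore viability, so some active siRNAs may act by altering cell number.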 Reagents against one gene are numbered here. Not all columns of the deposit are shown.

| Target gene | reagent | total luciferase, z-score | total luciferase, % of control | luciferase per cell, z-score | call |
| --- | --- | --- | --- | --- | --- |
| ASB17 | 1 | -2.01 | 42 | -2.14 | inactive |
| ASB17 | 2 | -0.762 | 66.7 | 1.19 | inactive |
| ASB17 | 3 | -0.265 | 76.6 | 0.294 | inactive |
| CEBPZ | 1 | -1.7 | 48.1 | -1.23 | inactive |
| CEBPZ | 2 | -1.29 | 56.2 | -1.34 | inactive |
| CEBPZ | 3 | -1.62 | 49.6 | -1.59 | inactive |
| TUBA8 | 1 | 0.0756 | 83.4 | 0.747 | inactive |
| TUBA8 | 2 | -0.486 | 72.2 | -0.659 | inactive |
| TUBA8 | 3 | -0.791 | 66.2 | -1.17 | inactive |
| PPID | 1 | 0.121 | 84.3 | 0.111 | inactive |
| PPID | 2 | -1.7 | 48.2 | -2.33 | inactive |
| PPID | 3 | -0.444 | 73 | -0.747 | inactive |
| TMEM214 | 1 | -0.643 | 69.1 | -0.525 | inactive |
| TMEM214 | 2 | 2.75 | 137 | 1.85 | inactive |
| TMEM214 | 3 | 0.473 | 91.3 | 0.134 | inactive |
| TIAM1 | 1 | -0.684 | 68.3 | -1.13 | inactive |
| TIAM1 | 2 | -0.313 | 75.7 | -0.596 | inactive |
| TIAM1 | 3 | -1.13 | 59.5 | -1.33 | inactive |
| NDUFA3 | 1 | -1.41 | 53.8 | -0.365 | inactive |
| NDUFA3 | 2 | 0.0797 | 83.5 | -0.393 | inactive |
| NDUFA3 | 3 | -0.268 | 76.5 | -0.441 | inactive |
| ELMOD2 | 1 | 4.61 | 174 | 3.3 | active |
| ELMOD2 | 2 | -0.541 | 71.1 | 0.925 | inactive |
| ELMOD2 | 3 | -0.645 | 69.1 | -0.753 | inactive |
| GOLGA3 | 1 | 0.415 | 90.1 | 0.752 | inactive |
| GOLGA3 | 2 | -0.11 | 79.7 | -0.326 | inactive |
| GOLGA3 | 3 | -0.268 | 76.5 | 0.999 | inactive |
| HLA-DRA | 1 | -0.112 | 79.7 | -0.0871 | inactive |
| HLA-DRA | 2 | 0.0618 | 83.1 | -0.0953 | inactive |
| HLA-DRA | 3 | 1.12 | 104 | 0.74 | inactive |
| PIEZO1-AS1 | 1 | -0.612 | 69.7 | -0.625 | inactive |
| PIEZO1-AS1 | 2 | 1.42 | 110 | 2.04 | inactive |
| PIEZO1-AS1 | 3 | -1.16 | 58.7 | -0.291 | inactive |
| C1orf50 | 1 | 0.753 | 96.9 | 1.11 | inactive |
| C1orf50 | 2 | 0.909 | 100 | -0.133 | inactive |
| C1orf50 | 3 | 0.229 | 86.4 | 0.65 | inactive |
| FBP2 | 1 | 2.33 | 128 | 2.72 | inactive |
| FBP2 | 2 | 0.0615 | 83.1 | -0.723 | inactive |
| FBP2 | 3 | 0.689 | 95.6 | 0.785 | inactive |
